Laboratory results: the supplement of paper PMC8728848
This is one part of the list.

Experiments:
Test in all cases: glycan array binding signal (z-score within array); higher = stronger binding
Conditions in all cases: glycan notation: IUPAC condensed, linker removed
Gal(a1-3)Gal(b1-3)GlcNAc = target: Gal(a1-3)Gal(b1-3)GlcNAc
In short: (§1)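 Glycan array data were curated from 3228 arrays in the Consortium for Functional Glycomics database and kept only where the protein sequence was available. Glycan names were converted to IUPAC-condensed notation, and columns mapping to the same glycan were averaged. The binding signal is a within-array Z-score, averaged across arrays of the same protein sequence at different concentrations or buffers and across linkers. Negative Z-scores can be read as non-binding.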

[1] = target: Gal(a1-3)Gal(b1-3)GlcNAc(b1-2)Man
In short: as §1

[2] = target: Gal(a1-3)Gal(b1-3)GlcNAc(b1-2)Man(a1-3)[Gal(a1-3)Gal(b1-3)GlcNAc(b1-2)Man(a1-6)]Man(b1-4)GlcNAc(b1-4)GlcNAc
In short: as §1

[3] = target: Gal(a1-3)Gal(b1-3)GlcNAc(b1-3)GalNAc
In short: as §1

[4] = target: Gal(a1-3)Gal(b1-3)GlcNAc(b1-6)GalNAc
In short: as §1

[5] = target: Gal(a1-3)Gal(b1-3)[Fuc(a1-4)]GlcNAc(b1-2)Man(a1-3)[Gal(a1-3)Gal(b1-3)[Fuc(a1-4)]GlcNAc(b1-2)Man(a1-6)]Man(b1-4)GlcNAc(b1-4)GlcNAc
In short: as §1

Gal(a1-3)Gal(b1-4)Glc = target: Gal(a1-3)Gal(b1-4)Glc
In short: as §1

Gal(a1-3)Gal(b1-4)GlcNAc = target: Gal(a1-3)Gal(b1-4)GlcNAc
In short: as §1

[6] = target: Gal(a1-3)Gal(b1-4)GlcNAc(b1-2)Man
In short: as §1

[7] = target: Gal(a1-3)Gal(b1-4)GlcNAc(b1-2)Man(a1-3)[Gal(a1-3)Gal(b1-4)GlcNAc(b1-2)Man(a1-6)]Man(b1-4)GlcNAc(b1-4)GlcNAc
In short: as §1

[8] = target: Gal(a1-3)Gal(b1-4)GlcNAc(b1-3)GalNAc
In short: as §1

[9] = target: Gal(a1-3)Gal(b1-4)GlcNAc(b1-6)GalNAc
In short: as §1

[10] = target: Gal(a1-3)Gal(b1-4)[Fuc(a1-3)]GlcNAc
In short: as §1

[11] = target: Gal(a1-3)Gal(b1-4)[Fuc(a1-3)]GlcNAc(b1-2)Man(a1-3)[Gal(a1-3)Gal(b1-4)[Fuc(a1-3)]GlcNAc(b1-2)Man(a1-6)]Man(b1-4)GlcNAc(b1-4)GlcNAc
In short: as §1

Gal(a1-3)GalNAc = target: Gal(a1-3)GalNAc
In short: as §1

[12] = target: Gal(a1-3)[Gal(a1-4)]Gal(b1-4)GlcNAc
In short: as §1

[13] = target: Gal(a1-4)Gal(b1-3)GlcNAc(b1-2)Man(a1-3)[Gal(a1-4)Gal(b1-3)GlcNAc(b1-2)Man(a1-6)]Man(b1-4)GlcNAc(b1-4)GlcNAc
In short: as §1

Gal(a1-4)Gal(b1-4)Glc = target: Gal(a1-4)Gal(b1-4)Glc
In short: as §1

Gal(a1-4)Gal(b1-4)GlcNAc = target: Gal(a1-4)Gal(b1-4)GlcNAc
In short: as §1

[14] = target: Gal(a1-4)Gal(b1-4)GlcNAc(b1-2)Man(a1-3)[Gal(a1-4)Gal(b1-4)GlcNAc(b1-2)Man(a1-6)]Man(b1-4)GlcNAc(b1-4)GlcNAc
In short: as §1

[15] = target: Gal(a1-4)Gal(b1-4)GlcNAc(b1-3)Gal(b1-4)Glc
In short: as §1

Gal(a1-4)GlcNAc = target: Gal(a1-4)GlcNAc
In short: as §1

Gal(a1-6)Glc = target: Gal(a1-6)Glc
In short: as §1

Gal(b1-2)Gal = target: Gal(b1-2)Gal
In short: as §1

Gal(b1-3)Gal = target: Gal(b1-3)Gal
In short: as §1

Gal(b1-3)Gal(b1-4)GlcNAc = target: Gal(b1-3)Gal(b1-4)GlcNAc
In short: as §1

Gal(b1-3)GalNAc = target: Gal(b1-3)GalNAc
In short: as §1

[16] = target: Gal(b1-3)GalNAc(a1-3)[Fuc(a1-2)]Gal(b1-4)Glc
In short: as §1

[17] = target: Gal(b1-3)GalNAc(a1-3)[Fuc(a1-2)]Gal(b1-4)GlcNAc
In short: as §1

Gal(b1-3)GalNAc(b1-3)Gal = target: Gal(b1-3)GalNAc(b1-3)Gal
In short: as §1

[18] = target: Gal(b1-3)GalNAc(b1-3)Gal(a1-4)Gal(b1-4)Glc
In short: as §1

[19] = target: Gal(b1-3)GalNAc(b1-4)Gal(b1-4)Glc
In short: as §1

[20] = target: Gal(b1-3)GalNAc(b1-4)[Neu5Ac(a2-3)]Gal(b1-4)Glc
In short: as §1

Gal(b1-3)GlcNAc = target: Gal(b1-3)GlcNAc
In short: as §1

[21] = target: Gal(b1-3)GlcNAc(a1-3)Gal(b1-4)GlcNAc
In short: as §1

[22] = target: Gal(b1-3)GlcNAc(a1-6)Gal(b1-4)GlcNAc
In short: as §1

Gal(b1-3)GlcNAc(b1-2)Man = target: Gal(b1-3)GlcNAc(b1-2)Man
In short: as §1

[23] = target: Gal(b1-3)GlcNAc(b1-2)Man(a1-3)[Gal(b1-3)GlcNAc(b1-2)Man(a1-6)]Man(b1-4)GlcNAc(b1-4)GlcNAc
In short: as §1

B1: Sp8391B-bot-388-20-388 (Bacteroides ovatus) (protein)
chain: GCQNNDENEQHYDNKLFISASNFTKEILFKAGDTNVETGLSVAIAKPEEHDIKVTMSPAPELLSTYKLAYYDETAVLLSEEHYSMPETSTTIKSGSIVSPELPIEFINTGELDIKTTYVLPVTIKSVEGIGVLQSAKTYYYVFRGASLINVVCNISRNRAYPDFKNDSKFNNLTENTMEILFKANSFPNTLNTLMGIESNYLLRIGDATIPNNQLQVATSVNNCTSADLQLESGKWYHVAVAFNKGNVKVYINGVEKLSGSTGKSSVSLGAKHTNEEDGSRCFWVGYSYKDDRYFDGVVSEVRIWNRALTAEEIQATNHFYTIEPESEGLIAYWKFDEGSGTVAKDYSVSGYDLTIEKEPKWESVSLPQ
In the case of B1, the “glycan array binding signal (z-score)” value (Gal(a1-3)Gal(b1-3)GlcNAc) is reported as 0.784, the “glycan array binding signal (z-score)” value [1] is reported as -0.818 and the “glycan array binding signal (z-score)” value [2] is reported as 0.772. The “glycan array binding signal (z-score)” value [3] was -0.341, the “glycan array binding signal (z-score)” value [4] was 0.225 and the “glycan array binding signal (z-score)” value [5] was 8.13. The “glycan array binding signal (z-score)” value (Gal(a1-3)Gal(b1-4)Glc) was -0.621, the “glycan array binding signal (z-score)” value (Gal(a1-3)Gal(b1-4)GlcNAc) was -0.489 and the “glycan array binding signal (z-score)” value [6] was 0.2. For the same binder, the “glycan array binding signal (z-score)” value [7] was -0.179, the “glycan array binding signal (z-score)” value [8] was -0.389 and the “glycan array binding signal (z-score)” value [9] was 0.211. The “glycan array binding signal (z-score)” value [10] was -0.616, the “glycan array binding signal (z-score)” value [11] was 1.6 and the “glycan array binding signal (z-score)” value (Gal(a1-3)GalNAc) was -0.069. For the same binder, the “glycan array binding signal (z-score)” value [12] was -0.251, the “glycan array binding signal (z-score)” value [13] was 2.6 and the “glycan array binding signal (z-score)” value (Gal(a1-4)Gal(b1-4)Glc) was 0.623. The “glycan array binding signal (z-score)” value (Gal(a1-4)Gal(b1-4)GlcNAc) was 0.049, the “glycan array binding signal (z-score)” value [14] was 0.691 and the “glycan array binding signal (z-score)” value [15] was -0.875. For the same binder, the “glycan array binding signal (z-score)” value (Gal(a1-4)GlcNAc) was -0.289, the “glycan array binding signal (z-score)” value (Gal(a1-6)Glc) was 0.597 and the “glycan array binding signal (z-score)” value (Gal(b1-2)Gal) was 0.024. For the same binder, the “glycan array binding signal (z-score)” value (Gal(b1-3)Gal) was -0.179, the “glycan array binding signal (z-score)” value (Gal(b1-3)Gal(b1-4)GlcNAc) was -0.515 and the “glycan array binding signal (z-score)” value (Gal(b1-3)GalNAc) was 0.027. For the same binder, the “glycan array binding signal (z-score)” value [16] was 0.361, the “glycan array binding signal (z-score)” value [17] was -0.249 and the “glycan array binding signal (z-score)” value (Gal(b1-3)GalNAc(b1-3)Gal) was -0.301. For the same binder, the “glycan array binding signal (z-score)” value [18] was -0.745, the “glycan array binding signal (z-score)” value [19] was 0.437 and the “glycan array binding signal (z-score)” value [20] was -0.428. The “glycan array binding signal (z-score)” value (Gal(b1-3)GlcNAc) was -0.664, the “glycan array binding signal (z-score)” value [21] was -1.02 and the “glycan array binding signal (z-score)” value [22] was -0.85. The “glycan array binding signal (z-score)” value (Gal(b1-3)GlcNAc(b1-2)Man) was 0.601 and the “glycan array binding signal (z-score)” value [23] was 3.77.
